In US20190352408A1:
These are yes or no findings as the source states them, for the method shown. Some binding calls cover weakened binding; strength is not graded here.

Target: T1, FLT3/IDT mutant on cell line MV-4-11 (UniProt P36888)
T1 sequence (looked up): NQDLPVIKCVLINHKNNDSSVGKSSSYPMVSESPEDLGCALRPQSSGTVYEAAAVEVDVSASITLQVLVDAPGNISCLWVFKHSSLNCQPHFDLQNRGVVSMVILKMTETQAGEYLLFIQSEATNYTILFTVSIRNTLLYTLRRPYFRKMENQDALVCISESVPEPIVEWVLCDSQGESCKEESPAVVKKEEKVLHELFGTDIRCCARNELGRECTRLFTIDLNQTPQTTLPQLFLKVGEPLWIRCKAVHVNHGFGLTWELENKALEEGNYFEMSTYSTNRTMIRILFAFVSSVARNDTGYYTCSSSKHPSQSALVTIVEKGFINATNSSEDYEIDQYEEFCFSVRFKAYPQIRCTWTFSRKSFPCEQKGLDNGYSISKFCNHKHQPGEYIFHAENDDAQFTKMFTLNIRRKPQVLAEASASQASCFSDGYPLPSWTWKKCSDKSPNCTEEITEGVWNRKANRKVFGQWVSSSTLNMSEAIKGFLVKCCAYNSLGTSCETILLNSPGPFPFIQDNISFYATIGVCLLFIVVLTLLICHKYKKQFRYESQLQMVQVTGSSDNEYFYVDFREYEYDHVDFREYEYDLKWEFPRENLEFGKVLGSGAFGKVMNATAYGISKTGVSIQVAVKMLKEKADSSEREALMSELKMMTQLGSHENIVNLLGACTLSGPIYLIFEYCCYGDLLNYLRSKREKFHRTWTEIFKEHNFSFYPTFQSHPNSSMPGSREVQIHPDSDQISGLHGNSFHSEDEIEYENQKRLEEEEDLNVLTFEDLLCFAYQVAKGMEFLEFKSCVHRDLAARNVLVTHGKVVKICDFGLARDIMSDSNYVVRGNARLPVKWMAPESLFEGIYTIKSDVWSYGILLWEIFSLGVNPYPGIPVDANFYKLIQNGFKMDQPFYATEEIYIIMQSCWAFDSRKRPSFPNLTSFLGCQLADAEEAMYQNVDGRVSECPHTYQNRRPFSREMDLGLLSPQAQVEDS
Test: flow cytometry on MV-4-11 cells, anti-His-PE detection

binding: binds
B1: m1012 (VHH)
VHH: EVQLVESGGGLVQPGGSLRLSCAASRFYFSGYEMSWVRQAPGKGLEWVSAISGSGGSTYYADSVKGRFTISRDNSKNTLYLQMNSLRAEDTAVYYCARRVVGAKLYFQHWGQGTLVTVSS
